Chains of the proteins cited; added tags and fusions are not shown. A line that says so, or that is headed by a name, gives the form on record, which may keep a tag or linker.
UniProt P04114, other isoform, or with tags, fused parts or gaps: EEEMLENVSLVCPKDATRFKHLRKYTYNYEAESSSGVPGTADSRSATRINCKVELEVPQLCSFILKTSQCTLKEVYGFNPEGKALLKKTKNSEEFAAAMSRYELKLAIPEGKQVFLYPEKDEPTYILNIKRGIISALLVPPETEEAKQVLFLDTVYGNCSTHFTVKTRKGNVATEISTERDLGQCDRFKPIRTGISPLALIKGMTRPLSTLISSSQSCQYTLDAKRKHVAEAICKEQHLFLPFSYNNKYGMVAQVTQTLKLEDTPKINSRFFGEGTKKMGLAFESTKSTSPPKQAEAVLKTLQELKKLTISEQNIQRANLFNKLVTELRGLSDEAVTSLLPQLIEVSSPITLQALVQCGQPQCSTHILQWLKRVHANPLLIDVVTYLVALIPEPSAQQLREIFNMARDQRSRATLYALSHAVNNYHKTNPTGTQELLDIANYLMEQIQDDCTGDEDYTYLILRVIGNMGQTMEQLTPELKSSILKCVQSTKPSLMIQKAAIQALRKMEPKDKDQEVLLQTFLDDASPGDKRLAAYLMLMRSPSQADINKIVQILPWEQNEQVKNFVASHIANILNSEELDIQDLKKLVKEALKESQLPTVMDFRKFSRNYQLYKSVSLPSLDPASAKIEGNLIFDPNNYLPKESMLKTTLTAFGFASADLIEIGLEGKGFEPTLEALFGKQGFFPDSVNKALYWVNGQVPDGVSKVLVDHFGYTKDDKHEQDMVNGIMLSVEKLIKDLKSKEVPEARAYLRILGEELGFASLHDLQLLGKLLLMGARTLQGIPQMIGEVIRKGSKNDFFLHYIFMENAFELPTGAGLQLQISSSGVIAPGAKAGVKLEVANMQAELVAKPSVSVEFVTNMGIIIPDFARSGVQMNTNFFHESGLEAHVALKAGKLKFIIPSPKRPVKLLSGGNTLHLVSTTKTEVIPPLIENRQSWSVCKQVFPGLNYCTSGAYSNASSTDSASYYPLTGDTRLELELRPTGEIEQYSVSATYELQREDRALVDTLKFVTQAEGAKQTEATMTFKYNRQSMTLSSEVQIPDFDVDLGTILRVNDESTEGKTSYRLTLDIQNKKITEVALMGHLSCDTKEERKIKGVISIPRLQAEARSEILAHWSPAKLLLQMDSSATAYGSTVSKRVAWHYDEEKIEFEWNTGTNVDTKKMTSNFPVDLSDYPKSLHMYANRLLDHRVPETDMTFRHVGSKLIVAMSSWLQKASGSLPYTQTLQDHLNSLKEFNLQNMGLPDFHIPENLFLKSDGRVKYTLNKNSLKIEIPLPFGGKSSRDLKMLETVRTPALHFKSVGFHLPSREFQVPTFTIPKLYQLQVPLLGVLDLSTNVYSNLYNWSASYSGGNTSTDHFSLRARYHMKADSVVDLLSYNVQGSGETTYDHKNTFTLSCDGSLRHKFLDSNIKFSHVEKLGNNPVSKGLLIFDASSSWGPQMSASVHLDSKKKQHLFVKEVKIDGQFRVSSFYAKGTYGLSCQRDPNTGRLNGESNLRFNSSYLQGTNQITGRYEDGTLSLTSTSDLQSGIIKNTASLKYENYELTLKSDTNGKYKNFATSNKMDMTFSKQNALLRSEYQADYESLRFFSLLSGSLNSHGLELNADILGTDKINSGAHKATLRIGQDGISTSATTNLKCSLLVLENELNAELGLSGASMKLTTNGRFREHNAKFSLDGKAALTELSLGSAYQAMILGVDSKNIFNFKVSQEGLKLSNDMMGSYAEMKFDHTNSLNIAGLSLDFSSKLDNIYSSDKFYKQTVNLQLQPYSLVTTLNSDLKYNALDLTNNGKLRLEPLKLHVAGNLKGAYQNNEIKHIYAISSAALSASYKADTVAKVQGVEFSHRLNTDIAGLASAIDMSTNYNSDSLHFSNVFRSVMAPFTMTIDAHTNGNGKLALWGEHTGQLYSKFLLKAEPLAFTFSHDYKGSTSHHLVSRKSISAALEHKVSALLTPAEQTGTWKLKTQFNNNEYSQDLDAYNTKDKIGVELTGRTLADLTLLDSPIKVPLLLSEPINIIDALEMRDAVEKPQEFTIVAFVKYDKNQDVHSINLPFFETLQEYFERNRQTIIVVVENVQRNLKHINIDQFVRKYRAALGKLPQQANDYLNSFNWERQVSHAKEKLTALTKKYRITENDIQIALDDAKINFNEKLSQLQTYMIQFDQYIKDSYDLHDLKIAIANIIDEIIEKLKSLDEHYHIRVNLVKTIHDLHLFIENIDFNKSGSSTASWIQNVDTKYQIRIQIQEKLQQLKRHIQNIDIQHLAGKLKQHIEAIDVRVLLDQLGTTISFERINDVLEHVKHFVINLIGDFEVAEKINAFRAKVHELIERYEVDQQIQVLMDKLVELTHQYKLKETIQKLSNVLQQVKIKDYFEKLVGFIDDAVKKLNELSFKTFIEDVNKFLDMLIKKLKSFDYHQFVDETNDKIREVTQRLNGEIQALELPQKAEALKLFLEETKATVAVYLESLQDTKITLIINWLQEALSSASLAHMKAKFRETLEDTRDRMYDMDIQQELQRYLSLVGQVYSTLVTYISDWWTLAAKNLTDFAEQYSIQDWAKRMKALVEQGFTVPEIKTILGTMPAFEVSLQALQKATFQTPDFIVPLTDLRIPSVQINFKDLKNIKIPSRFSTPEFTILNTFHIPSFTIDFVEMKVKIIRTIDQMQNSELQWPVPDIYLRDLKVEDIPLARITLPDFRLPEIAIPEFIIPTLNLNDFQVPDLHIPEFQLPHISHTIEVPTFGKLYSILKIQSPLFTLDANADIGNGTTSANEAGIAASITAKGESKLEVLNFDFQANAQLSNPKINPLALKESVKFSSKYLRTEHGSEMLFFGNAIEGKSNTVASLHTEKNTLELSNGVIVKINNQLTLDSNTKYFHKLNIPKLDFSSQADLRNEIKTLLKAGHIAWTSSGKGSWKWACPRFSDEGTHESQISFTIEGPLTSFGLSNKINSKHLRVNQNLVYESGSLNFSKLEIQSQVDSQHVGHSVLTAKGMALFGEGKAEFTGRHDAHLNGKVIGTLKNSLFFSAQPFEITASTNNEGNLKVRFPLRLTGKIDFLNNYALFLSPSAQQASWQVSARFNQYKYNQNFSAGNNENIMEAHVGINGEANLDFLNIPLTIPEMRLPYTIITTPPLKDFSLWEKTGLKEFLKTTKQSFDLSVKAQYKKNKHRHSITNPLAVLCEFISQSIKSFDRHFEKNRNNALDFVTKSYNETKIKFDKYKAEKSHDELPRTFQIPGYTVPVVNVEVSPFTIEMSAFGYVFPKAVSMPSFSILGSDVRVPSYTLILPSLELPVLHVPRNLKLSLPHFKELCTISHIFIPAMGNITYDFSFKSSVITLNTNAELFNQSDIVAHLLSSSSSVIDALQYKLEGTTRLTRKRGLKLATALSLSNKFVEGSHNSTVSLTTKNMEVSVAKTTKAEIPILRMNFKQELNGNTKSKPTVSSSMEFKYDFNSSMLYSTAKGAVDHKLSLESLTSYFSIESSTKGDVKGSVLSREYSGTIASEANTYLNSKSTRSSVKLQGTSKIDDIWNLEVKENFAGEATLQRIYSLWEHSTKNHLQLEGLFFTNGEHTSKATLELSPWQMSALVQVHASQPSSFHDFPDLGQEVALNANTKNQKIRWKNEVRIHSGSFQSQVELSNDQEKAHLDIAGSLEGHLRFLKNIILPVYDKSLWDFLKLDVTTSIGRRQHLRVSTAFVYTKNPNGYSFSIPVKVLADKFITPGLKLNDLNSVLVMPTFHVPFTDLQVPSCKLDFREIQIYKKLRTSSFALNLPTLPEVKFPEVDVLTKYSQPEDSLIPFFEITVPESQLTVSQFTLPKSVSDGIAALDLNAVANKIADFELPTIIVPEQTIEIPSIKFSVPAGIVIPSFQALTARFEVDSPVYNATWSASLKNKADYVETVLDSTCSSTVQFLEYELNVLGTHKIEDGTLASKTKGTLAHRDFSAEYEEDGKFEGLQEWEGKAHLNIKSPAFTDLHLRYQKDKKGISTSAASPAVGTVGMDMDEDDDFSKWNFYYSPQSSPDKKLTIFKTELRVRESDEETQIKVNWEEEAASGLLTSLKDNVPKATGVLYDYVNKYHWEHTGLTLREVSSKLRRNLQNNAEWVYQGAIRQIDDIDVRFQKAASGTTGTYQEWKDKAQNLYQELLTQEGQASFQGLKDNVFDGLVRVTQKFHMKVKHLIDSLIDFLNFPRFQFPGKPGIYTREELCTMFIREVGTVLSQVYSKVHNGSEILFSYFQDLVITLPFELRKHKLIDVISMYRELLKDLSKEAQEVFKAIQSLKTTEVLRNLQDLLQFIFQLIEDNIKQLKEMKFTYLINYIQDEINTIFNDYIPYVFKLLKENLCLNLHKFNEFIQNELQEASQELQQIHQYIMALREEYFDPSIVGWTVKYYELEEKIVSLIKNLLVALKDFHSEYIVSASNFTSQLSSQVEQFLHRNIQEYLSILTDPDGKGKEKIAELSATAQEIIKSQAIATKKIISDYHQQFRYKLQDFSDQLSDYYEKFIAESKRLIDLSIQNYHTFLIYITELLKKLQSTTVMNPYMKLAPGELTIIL

According to US6635623:

Key:
Test in all cases: EMSA
[1] = system: HDL (Homo sapiens); conditions: HDL did not bind any oligo tested; purified native protein; protein details: plasma lipoprotein particle without apoB-100
[2] = system: LDL (Mus musculus); conditions: 15 mM MgCl2; purified native protein; protein details: plasma lipoprotein particle
[3] = target: LDL (apoB-100-containing) (Homo sapiens) (UniProt P04114); conditions: purified native protein
[4] = system: LDL (baboon); conditions: 15 mM MgCl2; purified native protein; protein details: plasma lipoprotein particle
[5] = system: VLDL (Homo sapiens); conditions: purified native protein, protein details: plasma lipoprotein particle containing apoB-100

Sequence | binding result [1] | binding result [2] | binding result ([3]; agarose gel shift, Tris pH 7.4, 100-154 mM NaCl, 15 mM MgCl2, RT) | binding result [4] | binding result ([5]; lower affinity than LDL) | binding result ([3]; agarose gel shift, 15 mM MgCl2) | binding result ([3]; greater affinity than for plasmid lacking the promoter) | binding result [5]
GATCCAAATCACCCACTGCAACTCCTCCCCCTGCG (double strand) [SRE-2A] | no binding | no binding | binds | no binding | binds more weakly |  |  | 
GATCCATCCAATTGGGCAATCAGGAG (double strand) [E/C-1A] | no binding | no binding |  | no binding | binds more weakly | binds |  | 
GATCCGGTCTCCAATTGG (double strand) [FAS-1A] | no binding | no binding |  | no binding | binds more weakly | binds |  | 
GATCCTCGGGAAAGGGAAACCGAAACTGAAGCCG (double strand) [ISRE-1A] | no binding | no binding |  |  | binds more weakly | binds |  | 
GGATCTGACGGTTCACTAAACCAGCTCTGCTTATATAGACCTCCCACCGTACACGCCTACCGCCCATTTGCGTCAATGGGGCGGAGTTGTTACGACATTTTGGAAAGTCCCGTTGATTTTGGTGCCAAAACAAACTCCATTGACGTCAATGGGGTGGAGACTTGGAAATCCCCGTGAGTCAAACCGCTATCCACGCCCATTGATGTACTGCCAAAACCGCATCACCATGGTAATAGCGATGACTAATACGTAGATGTACTGCCAAGTAGGAAAGTCCCATAAGGTCATGTACTGGGCATAATGCCAGGCGGGCCATTTACCGTCATTGACGTCAATAGGGGGCGTACTTGGCATATGATACACTTGATGTACTGCCAAGTGGGCAGTTTACCGTAAATACTCCACCCATTGACGTCAATGGAAAGTCCCTATTGGCGTTACTATGGGAACATACGTCATTATTGACGTCAATGGGCGGGGGTCGTTGGGCGGTCAGCCAGGCGGGCCATTTACCGTAAGTTATGTAACGCGGAACTCCATATATGGGCTATGAACTAATGACCCCGTAATTGATTACTATTAATAACTA (double strand) [HCMV IE promoter region] |  |  |  |  |  |  | binds | binds

The exact form of at least one protein or probe is not confirmed. For part of these data: Negatives hold for the conditions tested. For part of these data: The comparison behind a weaker result is the experiment's own reference, which may not be listed here.
